This note sets out measurements from PubChem BioAssay AID588463 (National Center for Advancing Translational Sciences (NCATS), 2011).

The structures appear in SMILES notation. Among all 1,200 compounds or so, about 15 (1%) were called active. Roughly 7% stayed inconclusive and do not appear here. The call rests on the fitted dose curve; in most records, active means well fitted activation curve with a large enough effect; inconclusive means small, poorly fitted or top-dose-only effect; inactive means flat fitted curve, though single readings scatter. Some of the results follow.
Potency means the concentration at half of the fitted maximal effect.

This assay has as its target Beta-2 adrenergic receptor (Homo sapiens) (UniProt P07550). Briefly: qHTS assay of beta-arrestin-biased ligands of beta2-adrenergic receptor: Hit Validation.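 On activation: plate controls were DMSO for no effect and maximal isoproterenol or metaproterenol response for full effect.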 The settings on record: cell-based beta-arrestin recruitment to beta2AR; Potency: activation; series mostly up to 46.1 µM; activation: at the top concentration. The source says:
The concept of biased agonism is an emerging concept of molecular pharmacology which proposes that seven transmembrane receptors (7TMRs) or G protein-coupled receptors (GPCRs), exist in multiple signaling conformations and complexes and that ligands (either agonists or antagonists) can induce signaling biased responses for distinct signal transduction cascades.
Furthermore, accumulating evidence over the last decade has drawn attention to a novel function of beta-arrestins as signal transducers that scaffold various signaling molecules upon activation of 7TMRs. […] This beta-arrestin-biased signaling presumably leads to distinct physiological outcomes from those by G protein activation.
Additionally, the active receptor conformations which […] on this beta-arrestin signaling are likely different from those activating G protein signaling
The goal of this screening project will be to discover and optimize novel beta-arrestin-biased ligands for beta2-AR signaling. A luminescent cell-based assay for beta2-AR-mediated agonism, known as the Tango assay, has been validated in which ligand binding of a recombinant beta2-AR and subsequent recruitment of a recombinant beta-arrestin lead to the release of the transcriptional activator tTA, which upregulates transcription of a tTA-responsive luciferase gene.
NIH Molecular Libraries Probe Production Network [MLPCN]
NIH Chemical Genomics Center [NCGC]
PI: Bryan Roth (UNC) and Bob Lefkowitz (Duke)
NCGC Assay Protocol Summary:
Tango cells were dispensed into white, solid, tissue-culture-treated 1536-well plates at 1500 cells/well in DMEM, containing 1% fetal bovine serum (FBS). Then, 23 nL of compounds or DMSO were delivered to each well using a pin tool. Plates were incubated at 37 degrees C, 5% CO2 for 18 hr. Then 2.5 uL luminescent substrate mix (in-house prepared: 150 mM Tris-Cl, pH 7.6, 3 mM MgCl2, 1% Triton X-100, 5 mM DTT, 0.5 mM CoA, 0.15 mM ATP, 0.44 mM D-luciferin, final concentrations) was added to each well. Plates were then incubated for 15 minutes at room temperature, and subsequently measured on a ViewLux plate reader for luminescent signal using a clear filter with a 10 second exposure and 2x binning. The %Activity was determined from the corrected luminescence values.
Concentration-response curves were fitted to the signals arising from the resulting luminescence. The concentration-effect curves were then classified based on curve quality (r2), response magnitude and degree of measured activity, and compounds were subsequently categorized based on their curve class.
Keywords: biased agonism, beta2-AR, beta-arrestin, GPCR, 7TMR, Tango, luminescence, MLSMR, MLPCN, NIH Roadmap, qHTS, NCGC
Background: Quantitative high-throughput screening tests each substance at several concentrations.
In the case of `CCN(CC)S(=O)(=O)c1ccc(N/N=C(\C)c2ccc(OC)cc2O)nc1`, the “activation” value was inactive: -0.771%.

On to `CCc1ccccc1NC(=S)N=Nc1c(O)n(C)c2ccc(S(=O)(=O)N3CCOCC3)cc12`, for which the “activation” value is inactive: -1.71%.

In the case of `Cc1ccc(OCc2nnc(SC3CCc4ccccc4C3=O)n2C)cc1` (configuration not stated), the “activation” value was inactive: -3.08%.

For `Cc1cc([N+](=O)[O-])ccc1NC(=O)CCC(=O)N1CCCCCC1`, the “activation” value was inactive: -3.62%.

Regarding `O=C(Nc1nccs1)c1ccc2ccccc2n1`, the “activation” value was inactive: -2.82%.

On to `CCc1n[nH]c(=S)n1/N=C/c1ccc(N(CC)CC)cc1`, for which the “activation” value was inactive: -2.67%.

In the case of `COC(=O)c1ccc(CSc2cc(C)c3ccccc3n2)o1`, the “activation” value was inactive: -4.03%.

In the case of `NC(=S)N=Nc1c(O)n(CCCl)c2ccccc12`, the “activation” value is inactive: -3.25%.

`O=C1C=CC(O)(c2cc(=O)c3c(O)cc(O)cc3o2)C=C1`: the “activation” value was inactive: -3.11%.

As for `O=C(/C=C\c1ccccc1)Oc1cccc2cccnc12`, the “activation” value was inactive: -1.19%.

For the compound `O=C(NC1CCCCC1)N(Cc1cc2cc3c(cc2[nH]c1=O)OCCO3)CC1CCCO1` (configuration not stated), the “activation” value was inactive: -1.51%.

Take `C/C(=N/NC(=O)c1ccoc1C)c1ccc(NC(=O)C2CCCC2)cc1`: the “activation” value is inactive: -2.13%.

As for `CCCC(=O)Nc1ccc(Nc2ccccc2)cc1`, the “activation” value is inactive: -1.72%.

With `CCOc1ccc(/C=N/NC(=O)Cc2csc(Nc3cccc(C(F)(F)F)c3)n2)c(OCC)c1`, the “activation” value is inactive: 4.88%.

As to `Nc1ccc(OC(=O)Nc2ccc(O)cc2)cc1`, the “activation” value is inactive: -3.3%.

Regarding `COc1ccc(C(=O)N/N=C/C(Br)=C/c2ccccc2)cc1`, the “activation” value was inactive: -3.41%.

With `Cc1ccc(NC(=S)NC(NC(=O)c2ccccc2)C(Cl)(Cl)Cl)c(C)c1` (configuration not stated), the “activation” value was inactive: 5.97%.

As for `O=C(Nc1ccccc1)N1CCCC(c2nc(-c3cccs3)no2)C1` (configuration not stated), the “activation” value was inactive: -3.47%.

Consider `O=C(NC(=S)Nc1ccccn1)c1ccccc1`, for which the “activation” value is inactive: -1.67%.

In the case of `CC(C)c1ccccc1-n1c(SCC(=O)N2CCc3ccccc3C2)nc2ccccc2c1=O`, the “activation” value is inactive: 0.217%.

With `COc1ccc(N2C(=O)C3C(C2=O)C(C(=O)c2ccccc2)N2CCCC32)cc1` (configuration not stated), the “activation” value is inactive: -0.0662%.

As for `O=C(CCCCn1c(=O)[nH]c2ccsc2c1=O)NCC1CCCO1` (configuration not stated), the “activation” value was inactive: -3.14%.

For the compound `Cc1cs/c(=N\N=C2CCCCC2)n1Cc1ccco1`, the “activation” value was inactive: 0.204%.

Consider `C=CCNc1nc(Cl)nc(NC2CCCCC2)n1`, for which the “activation” value was inactive: 3.6%.

As for `COc1ccc(OC)c(S(=O)(=O)N/N=C(/C)c2c[nH]c3ccccc23)c1`, the “activation” value was inactive: -2.33%.

For `Cc1ccc(-c2ccc(/C=N/NC(N)=S)o2)cc1`, the “activation” value is inactive: -2.59%.

Take `Cc1cc(C)cc(NC(=O)CC23CC4CC(C2)CC(n2nnc(C)n2)(C4)C3)c1`: the “activation” value is inactive: -2.29%.

With `COc1ccc(NC(=S)N/N=C/c2ccc(F)cc2)cc1OC`, the “activation” value was inactive: -1.69%.

As to `COc1ccc(OC)c(C(=O)CSc2nnc(Cc3cccs3)n2C)c1`, the “activation” value is inactive: -2.89%.

For the compound `C=C(C)CNC(=S)N/N=C/c1ccco1`, the “activation” value was inactive: -3.63%.

Turning to `S=c1[nH]nc(-c2ccco2)n1/N=C/C(Cl)=C/c1ccccc1`, the “activation” value was inactive: 0.611%.

As for `CCCCN(CC)CCNC(=S)Nc1ccc2nc(N3CCN(C)CC3)cc(C)c2c1`, the “activation” value is inactive: -0.517%.

With `COc1cc(CN(C2CCCCC2)S(=O)(=O)c2ccc(S(=O)(=O)N(C)C3CCCCC3)cc2)cc(OC)c1OC`, the “activation” value was inactive: -2.71%.

With `COc1ccc2nc(/N=C/c3c(C)[nH]n(-c4ccc(C)cc4C)c3=O)sc2c1`, the “activation” value was inactive: -1.66%.

For `O=C1C2C(C(=O)N1/N=C/c1ccc([N+](=O)[O-])o1)C1C=CC2C12CC2` (configuration not stated), the “activation” value is inactive: 4.77%.

As to `C/C(=N\NC(=S)NC1CCCCC1)c1ccc(C)o1`, the “activation” value is inactive: -1.03%.

For the compound `CC(C)Oc1ccc(/C=N/NC(N)=S)cc1`, the “activation” value is inactive: -1.48%.

Turning to `O=C1c2ccccc2C(=O)N1CCC(c1ccc(F)cc1)c1ccco1` (configuration not stated), the “activation” value is inactive: 0.249%.

In the case of `O=S(=O)(N1CCOCC1)N1CCOCC1`, the “activation” value is inactive: -3.06%.

For the compound `CCCCn1c(SCC(=O)NC2CCCC2)nnc1-c1ccco1`, the “activation” value was inactive: -5.63%.

On to `COC(=O)c1c(NC(=O)CN2CCC3(O)CCCCC3C2c2ccc(F)cc2)sc(C)c1C` (configuration not stated), for which the “activation” value is inactive: -0.0028%.

Consider `C(=N\Nc1ncnc2ccccc12)/c1ccccc1`, for which the “activation” value was inactive: -2.43%.

With `CC(=O)Oc1ccc2cc(-c3ccccc3)c(=O)oc2c1`, the “activation” value is inactive: -2.83%.

For `COc1cccc(/C=N/NC(=O)c2cc(-c3cccn3C)n[nH]2)c1O`, the “activation” value was inactive: -2.59%.

Consider `CC1C/C(=N\NC(=S)NCc2ccccc2)CC(C)(C)C1` (configuration not stated), for which the “activation” value is inactive: -2.9%.

Take `O=C(NC(=S)Nc1cccc(NC(=S)NC(=O)c2ccco2)n1)c1ccco1`: the “activation” value is inactive: -4.64%.

As for `FC(F)(F)c1nc2ccccc2nc1N/N=C\c1ccccc1`, the “activation” value was inactive: -2.93%.

`CCn1nnc(NC(=S)NC(=O)c2ccc(-c3cccc(Cl)c3)o2)n1`: the “activation” value is inactive: -2.96%.

Consider `CCNS(=O)(=O)c1ccc(NC(=O)c2ccccc2SCCOC)cc1`, for which the “activation” value is inactive: 0.717%.

Turning to `Oc1[nH]c(N=C2N=c3ccccc3=N2)c2ccccc12`, the “activation” value is inactive: -2.42%.

For the compound `CC(C)NS(=O)(=O)c1ccc(NC(=O)C(C)Oc2ccc(C(=O)c3ccccc3)cc2)cc1` (configuration not stated), the “activation” value is inactive: 0.57%.

Take `S=C(Nc1ccccn1)NC1CCCC1`: the “activation” value is inactive: -0.402%.

On to `CC1(C)CC(=O)C(C2=NC3(CCCCCC3)Cc3ccccc32)=C(O)C1`, for which the “activation” value is inactive: -4.3%.

As to `CCSc1nnc(NC(=O)c2ccc3ccccc3n2)s1`, the “activation” value was inactive: -4.1%.

In the case of `CCC(NC(C)C)C(O)c1ccc(O)c2[nH]c(=O)ccc12` (configuration not stated), the Potency is active: 16.4 nM.

With `O=C(/C=C(O)/C=C/c1ccc(O)cc1)/C=C/c1ccc(O)cc1`, the “activation” value is inactive: -0.266%.

Turning to `CCC(=O)Nc1cccc(-c2nnc(SCC(=O)c3ccccc3)n2C)c1`, the “activation” value is inactive: -3.27%.
